Article PMC6348303
No constants are given. Whether binding was seen depends on the method and setting. In cells and extracts the contact can be indirect. For some assays here: A result given as binding can be weak or reduced; the word gives no strength.

Assays:
GRINA TM4-6-HA = experiment: co-IP; immunoprecipitation with anti-HA agarose beads of spHA-TM9SF2, spHA-TM9SF2 CΔ3 or GRINA TM4-6-HA; Gb3 synthase detected (Figure S6D)
[1] = biological target: spHA-TM9SF2 CΔ3 (spHA-TM9SF2 without the three C-terminal amino acids); experiment: as above

B1: Gb3 synthase (α1,4 galactosyltransferase) (enzyme, UniProt Q9NPC4 1-353)
chain: MSKPPDLLLRLLRGAPRQRVCTLFIIGFKFTFFVSIMIYWHVVGEPKEKGQLYNLPAEIPCPTLTPPTPPSHGPTPGNIFFLETSDRTNPNFLFMCSVESAARTHPESHVLVLMKGLPGGNASLPRHLGISLLSCFPNVQMLPLDLRELFRDTPLADWYAAVQGRWEPYLLPVLSDASRIALMWKFGGIYLDTDFIVLKNLRNLTNVLGTQSRYVLNGAFLAFERRHEFMALCMRDFVDHYNGWIWGHQGPQLLTRVFKKWCSIRSLAESRACRGVTTLPPEAFYPIPWQDWKKYFEDINPEELPRLLSATYAVHVWNKKSQGTRFEATSRALLAQLHARYCPTTHEAMKMYL
GRINA TM4-6-HA
  binding: no binding
[1]
  binding: binds
